Results are given in words; binding and its absence hold for the method and conditions named. Binding seen in cells or lysates may run through a third protein. Some binding calls cover weakened binding; strength is not graded here.
T1: alpha-1,6-fucosyltransferase FUT8 WT (human, UniProt Q9BYC5 1-575)
T1 construct: No chain bears both Myc and 3xFLAG; also called Myc-FUT8; Myc-tagged FUT8; source: HEK293 FUT8KO, transfected, in lysate; not shown: Myc (copy from pcDNA6-mycHisA), C-terminal, kept; His tag (from the vector pcDNA6-mycHisA); 3xFLAG (other copy; from pME-3xFLAG), C-terminal, kept
T1 sequence (looked up): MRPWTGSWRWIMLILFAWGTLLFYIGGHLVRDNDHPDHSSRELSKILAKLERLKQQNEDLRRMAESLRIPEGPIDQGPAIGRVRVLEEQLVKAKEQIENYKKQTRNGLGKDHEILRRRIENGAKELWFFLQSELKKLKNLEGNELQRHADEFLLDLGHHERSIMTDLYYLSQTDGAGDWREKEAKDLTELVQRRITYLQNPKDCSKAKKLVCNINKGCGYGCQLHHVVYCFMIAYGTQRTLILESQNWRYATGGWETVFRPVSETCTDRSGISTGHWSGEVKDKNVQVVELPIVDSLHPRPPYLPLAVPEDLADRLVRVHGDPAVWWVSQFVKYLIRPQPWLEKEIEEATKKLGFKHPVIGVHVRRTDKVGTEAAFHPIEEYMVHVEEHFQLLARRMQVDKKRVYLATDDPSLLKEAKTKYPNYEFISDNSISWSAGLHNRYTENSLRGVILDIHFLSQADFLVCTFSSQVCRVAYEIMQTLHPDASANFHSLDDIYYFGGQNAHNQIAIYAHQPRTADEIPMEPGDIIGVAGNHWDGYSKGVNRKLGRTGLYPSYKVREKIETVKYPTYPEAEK


Tests used:
[1] = biological target: T1, alpha-1,6-fucosyltransferase FUT8 WT; assay: co-IP; lysates (TBS, 1% Triton X-100) of HEK293 FUT8KO cells coexpressing Myc-tagged FUT8 WT or mutant with 3xFLAG-FUT8 WT; anti-DYKDDDDK antibody magnetic beads, 4 °C overnight; anti-Myc blot; IP signal divided by input, relative to FUT8 WT
[2] = biological target: FUT8Δstem-GSx40 (human) (UniProt Q9BYC5); assay: co-IP; lysates (TBS, 1% Triton X-100) of HEK293 FUT8KO cells expressing Myc-tagged FUT8 WT or mutant; anti-Myc antibody and Dynabeads protein G, 4 °C overnight; blot with anti-RPN1 (endogenous RPN1)
[3] = biological target: FUT8Δstem-GSx22 (human) (UniProt Q9BYC5); assay: as above
[4] = biological target: T1, alpha-1,6-fucosyltransferase FUT8 WT; assay: as above

| Binder | binding [1] | binding [2] | binding [3] | binding [4] |
| --- | --- | --- | --- | --- |
| alpha-1,6-fucosyltransferase FUT8 WT (enzyme, UniProt Q9BYC5 1-575) MRPWTGSWRWIMLILFAWGTLLFYIGGHLVRDNDHPDHSSRELSKILAKLERLKQQNEDLRRMAESLRIPEGPIDQGPAIGRVRVLEEQLVKAKEQIENYKKQTRNGLGKDHEILRRRIENGAKELWFFLQSELKKLKNLEGNELQRHADEFLLDLGHHERSIMTDLYYLSQTDGAGDWREKEAKDLTELVQRRITYLQNPKDCSKAKKLVCNINKGCGYGCQLHHVVYCFMIAYGTQRTLILESQNWRYATGGWETVFRPVSETCTDRSGISTGHWSGEVKDKNVQVVELPIVDSLHPRPPYLPLAVPEDLADRLVRVHGDPAVWWVSQFVKYLIRPQPWLEKEIEEATKKLGFKHPVIGVHVRRTDKVGTEAAFHPIEEYMVHVEEHFQLLARRMQVDKKRVYLATDDPSLLKEAKTKYPNYEFISDNSISWSAGLHNRYTENSLRGVILDIHFLSQADFLVCTFSSQVCRVAYEIMQTLHPDASANFHSLDDIYYFGGQNAHNQIAIYAHQPRTADEIPMEPGDIIGVAGNHWDGYSKGVNRKLGRTGLYPSYKVREKIETVKYPTYPEAEK | binds |  |  |  |
| ribophorin I (RPN1) (protein, UniProt P04843 24-607) ASSEAPPLINEDVKRTVDLSSHLAKVTAEVVLAHLGGGSTSRATSFLLALEPELEARLAHLGVQVKGEDEEENNLEVRETKIKGKSGRFFTVKLPVALDPGAKISVIVETVYTHVLHPYPTQITQSEKQFVVFEGNHYFYSPYPTKTQTMRVKLASRNVESYTKLGNPTRSEDLLDYGPFRDVPAYSQDTFKVHYENNSPFLTITSMTRVIEVSHWGNIAVEENVDLKHTGAVLKGPFSRYDYQRQPDSGISSIRSFKTILPAAAQDVYYRDEIGNVSTSHLLILDDSVEMEIRPRFPLFGGWKTHYIVGYNLPSYEYLYNLGDQYALKMRFVDHVFDEQVIDSLTVKIILPEGAKNIEIDSPYEISRAPDELHYTYLDTFGRPVIVAYKKNLVEQHIQDIVVHYTFNKVLMLQEPLLVVAAFYILFFTVIIYVRLDFSITKDPAAEARMKVACITEQVLTLVNKRIGLYRHFDETVNRYKQSRDISTLNSGKKSLETEHKALTSEIALLQSRLKTEGSDLCDRVSEMQKLDAQVKELVLKSAVEAERLVAGKLKKDTYIENEKLISGKRQELVTKIDHILDAL |  | binds weakly | binds weakly | binds |
| FUT8Δcoiled-coil (enzyme, UniProt Q9BYC5 1-108; Q9BYC5 174-575) MRPWTGSWRWIMLILFAWGTLLFYIGGHLVRDNDHPDHSSRELSKILAKLERLKQQNEDLRRMAESLRIPEGPIDQGPAIGRVRVLEEQLVKAKEQIENYKKQTRNGLGSGSDGAGDWREKEAKDLTELVQRRITYLQNPKDCSKAKKLVCNINKGCGYGCQLHHVVYCFMIAYGTQRTLILESQNWRYATGGWETVFRPVSETCTDRSGISTGHWSGEVKDKNVQVVELPIVDSLHPRPPYLPLAVPEDLADRLVRVHGDPAVWWVSQFVKYLIRPQPWLEKEIEEATKKLGFKHPVIGVHVRRTDKVGTEAAFHPIEEYMVHVEEHFQLLARRMQVDKKRVYLATDDPSLLKEAKTKYPNYEFISDNSISWSAGLHNRYTENSLRGVILDIHFLSQADFLVCTFSSQVCRVAYEIMQTLHPDASANFHSLDDIYYFGGQNAHNQIAIYAHQPRTADEIPMEPGDIIGVAGNHWDGYSKGVNRKLGRTGLYPSYKVREKIETVKYPTYPEAEK | binds |  |  |  |
